These are yes or no findings as the source states them, for the method shown. Some results given as binding are weak or reduced against the parent protein; the word gives no strength.
B1: mouse monoclonal antibody 4B12 (antibody, V domains shown)
VH: DVQLQESGPGLVKPSQSLSLTCTVTGYSITSDYAWNWIRQFPGNKLEWMGSISYSGITGYNPSLKSRISVTRDTSKNQFFLQLNSVTTEDTATYYCARMGYDGLAYWGHGTTVTVSA
VL: DVLMTQTPLSLPVSLGDQASISCRSSQSIVHSNGNTYLEWYLQKPGQSPKLLIYKVSNRFSGVPDRFSGSGSGTDFTFKISRVEAEDLGVYYCFQGSHVPPTFGGGTKLEIKR
notes: Mouse hybridoma IgG, detected with anti-mouse IgG; also called parental mouse 4B12
B2: humanized 4B12 (antibody, V domains shown)
VH: QVQLQESGPGLVKPSETLSLTCTVSGYSITSDYAWNWIRQPPGKGLEWMISISYSGITGYNPSLKSRVTISVDTSKNQFSLKLSSVTAADTAVYYCARMGYDGLAYWGQGTLVTVSS
VL: DIVMTQTPLSLSVTPGQPASISCRSSQSIVHSNGNTYLEWYLQKPGQSPQLLIYKVSNRFSGVPDRFSGSGSGTDFTLKISRVEAEDVGVYYCFQGSHVPPTFGGGTKVEIKR
B3: chimeric 4B12 (antibody, V domains shown)
VH: B1 VH
VL: B1 VL

Amino acid sequences for entries named in this document (tags omitted). Residues count along the entry.
UniProt P01854, residues 104-546: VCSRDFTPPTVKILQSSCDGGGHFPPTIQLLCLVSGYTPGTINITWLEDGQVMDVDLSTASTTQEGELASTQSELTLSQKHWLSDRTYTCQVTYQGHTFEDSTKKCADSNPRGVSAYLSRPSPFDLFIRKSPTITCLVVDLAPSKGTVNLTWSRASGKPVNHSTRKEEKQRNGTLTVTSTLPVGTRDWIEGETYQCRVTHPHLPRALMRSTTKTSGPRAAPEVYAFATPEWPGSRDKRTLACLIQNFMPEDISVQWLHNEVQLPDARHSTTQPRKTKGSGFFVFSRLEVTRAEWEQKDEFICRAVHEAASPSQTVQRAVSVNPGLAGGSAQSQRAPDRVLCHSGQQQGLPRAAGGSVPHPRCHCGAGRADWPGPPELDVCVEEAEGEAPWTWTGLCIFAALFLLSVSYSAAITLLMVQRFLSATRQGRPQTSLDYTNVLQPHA

Legend:
[1] = target: T1, mIgE.FcL on transfected Ramos cells (human, UniProt P01854 104-546, limits assumed); assay: flow cytometry, hybridoma supernatants on transfected Ramos cells
[2] = target: mIgE.FcL on transfected CHO cells (human) (UniProt P01854); assay: flow cytometry, hybridoma supernatants on transfected CHO cells
[3] = target: T1, mIgE.FcL on transfected Ramos cells; assay: binding to mIgE-expressing B cells, compared with a20
[4] = target: T1, mIgE.FcL on transfected Ramos cells; assay: method not described

| Binder | binding [1] | binding [2] | binding [3] | binding [4] |
| --- | --- | --- | --- | --- |
| B1 | binds | binds | binds |  |
| B2 |  |  |  | binds |
| B3 |  |  |  | binds |
